Measurements: article PMC7066847
Results are given in words; binding and its absence hold for the method and conditions named. In cells and extracts the contact can be indirect. Some binding calls cover weakened binding; strength is not graded here.

Biological target: Fibronectin (human (endogenous in YTS-1)) (UniProt P02751)
Test: co-IP; YTS-1/NEU1 cells (NEU1 overexpressed) lysed in modified RIPA buffer; anti-FN antibody on protein A/G Plus agarose overnight at 4 °C with gentle rotation; FN, β1 and NEU1 in the precipitate assayed by Western blotting

binding: binds
Substance: Sialidase-1 (neuraminidase 1) (from UniProt Q99519 48-415) (enzyme)
